For assay [1], the target named is phage lambda phage-like particles (expanded shells of the major capsid protein gpE) (bacteriophage lambda) (UniProt P03713). Nature of the assay: native gel or EMSA; both purified.
Assay [2] concerns the target T1, bacteriophage lambda decoration protein gpD (bacteriophage lambda), P03712.
T1 chain: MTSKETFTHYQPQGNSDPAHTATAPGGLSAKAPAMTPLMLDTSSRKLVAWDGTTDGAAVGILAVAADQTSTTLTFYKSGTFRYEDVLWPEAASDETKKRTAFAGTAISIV
The assay can be described thus: AUC; sedimentation velocity, 20 °C, 50,000 rpm; 10 mM sodium phosphate pH 6.6, 1.8 mM KH2PO4, 137 mM NaCl, 2.7 mM KCl; three concentrations, 11–63 μM; both purified. The note with it: remark: other sources report otherwise.

Amino acid sequences for entries named in this document (tags omitted).
UniProt P03713: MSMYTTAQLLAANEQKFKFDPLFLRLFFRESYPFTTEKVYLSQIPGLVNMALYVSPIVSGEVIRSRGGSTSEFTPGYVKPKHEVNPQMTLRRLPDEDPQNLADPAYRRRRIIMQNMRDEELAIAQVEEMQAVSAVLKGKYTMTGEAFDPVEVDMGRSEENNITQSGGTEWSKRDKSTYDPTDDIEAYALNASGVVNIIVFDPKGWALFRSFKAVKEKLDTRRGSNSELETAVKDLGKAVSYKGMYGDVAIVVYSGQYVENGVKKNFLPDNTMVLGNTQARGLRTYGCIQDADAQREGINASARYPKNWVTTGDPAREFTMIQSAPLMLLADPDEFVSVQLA

Results are given in words; binding and its absence hold for the method and conditions named. Some results given as binding are weak or reduced against the parent protein; the word gives no strength.

The record followed here is article PMC11598875.

For the molecule “bacteriophage lambda decoration protein gpD (from UniProt P03712 1-110)”, in assay [1], the binding result is listed as “binds”.

B1: bacteriophage lambda decoration protein gpD, P03712 1-110 (protein)
chain: T1 chain
With B1, the binding result in assay [2] is on record as “no binding (tested: 11–63 μM)”.
